# Data: patent US20090068243A1, “Novel formulations for delivery of antiviral peptide therapeutics” (priority 2007, published 2009)
# Part of at least one peptide drawing is inferred or uncertain, most often the ends.
# Assays:
# [1] = Thermal stability (Tm) by CD signal at 222 nm; format: physicochemical; details: CD at 222 nm, maximum of first derivative of thermal transition
# Protocol: (§1) Assessment of biophysical parameters included measurement of helicity and thermal stability. Helicity was assessed by circular dichroism (“CD”) as follows. Briefly, CD spectra were obtained using a spectrometer equipped with a thermoelectric temperature controller. The spectra was obtained at 25° C. with 0.5 nanometer (nm) steps from 200 to 260 nm, with a 1.5 nm bandwith, and a typical averaging time of 4 seconds/step. After the cell/buffer blank was subtracted, spectra were smoothed using a third-order least-squares polynomial fit with a conservative window size to give random residuals. Raw ellipticity values were converted to mean residue ellipticity using standard methods, and plotted was the wavelength (from 200 to 260 nm) versus [θ]×10−3 (degrees cm^2/dmol). Percent helicity values were then calculated using standard methods (usually expressed as percent helicity at 10 μM, 25° C.). Assessment of thermal stability was performed by monitoring the change in CD signal at 222 nm as temperature was raised in 2° C. steps, with 1 minute equilibration times. The stability for each sample (e.g., HIV fusion inhibitor peptide), as represented by the Tm value, is the temperature corresponding to the maximum value of the first derivative of the thermal transition.
# [2] = Helicity by circular dichroism (CD); format: physicochemical; details: usually percent helicity at 10 μM, 25° C.
# Protocol: as §1
# HIV-Res = format: cell-based, HIV-1; details: resistant viral isolate "Res"
# Source text: Assessment of biological properties included measurement of antiviral activity against HIV-1 strains. In determining antiviral activity (e.g., one measure being the ability to inhibit transmission of HIV to a target cell) of the HIV fusion inhibitor peptides, an in vitro assay which has been shown, by data generated using peptides derived from the HR regions of HIV gp41, to be predictive of antiviral activity observed in vivo was used. […] These assays score for reduction of infectious virus titer employing the indicator cell lines MAGI or the CCR5 expressing derivative cMAGI. Both cell lines exploit the ability of HIV-1 tat to transactivate the expression of a β-galactosidase reporter gene driven by the HIV-LTR. The β-gal reporter has been modified to localize in the nucleus and can be detected with the X-gal substrate as intense nuclear staining within a few days of infection. […] The number of infected cells for each control and peptide dilution was determined with the CCD-imager, and then the IC50 was calculated (expressed in μg/ml).
# Viruses resistant to the antiviral activity of a peptide consisting of a base sequence can be produced using standard laboratory methods. […] The cultures are maintained and monitored until syncytia are present. […] The second round of culture is maintained and monitored for presence of virus resistant to the antiviral activity of the peptide. […]
Compound,Tm (° C.) [1],Helicity (%) [2],Antiviral Activity (μg/ml) HIV-Res IC50 (HIV-Res)
CC[C@H](C)[C@H](NC(=O)[C@H](C)NC(=O)[C@H](CCCNC(=N)N)NC(=O)[C@H](CC(=O)O)NC(=O)[C@H](Cc1c[nH]c2ccccc12)NC(=O)[C@H](C)NC(=O)[C@H](CCC(=O)O)NC(=O)[C@H](Cc1c[nH]c2ccccc12)NC(=O)[C@@H](NC(=O)[C@@H](NC(C)=O)[C@@H](C)O)[C@@H](C)O)C(=O)N[C@@H](C)C(=O)N[C@@H](CCC(=O)O)C(=O)N[C@@H](Cc1ccc(O)cc1)C(=O)N[C@@H](C)C(=O)N[C@@H](C)C(=O)N[C@@H](CCCNC(=N)N)C(=O)N[C@H](C(=O)N[C@@H](CCC(=O)O)C(=O)N[C@@H](C)C(=O)N[C@@H](CC(C)C)C(=O)N[C@H](C(=O)N[C@@H](CCCNC(=N)N)C(=O)N[C@@H](C)C(=O)N[C@@H](C)C(=O)N[C@@H](CCC(N)=O)C(=O)N[C@@H](CCC(=O)O)C(=O)N[C@@H](CCC(N)=O)C(=O)N[C@@H](CCC(N)=O)C(=O)N[C@@H](CCC(=O)O)C(=O)N[C@@H](CCCCN)C(=O)N[C@@H](CC(N)=O)C(=O)N[C@@H](CCC(=O)O)C(=O)N[C@@H](C)C(=O)N[C@@H](C)C(=O)N[C@@H](CC(C)C)C(=O)N[C@@H](CCCNC(=N)N)C(=O)N[C@@H](CCC(=O)O)C(=O)N[C@@H](CC(C)C)C(N)=O)[C@@H](C)CC)[C@@H](C)CC [SEQ ID NO:5],42 °C,71%,
Ac-TTWEAWDRAIAEYAARIEALIRAAQEQQEKLEAALREL-NH2 (N-terminus and C-terminus assumed) [SEQ ID NO:7],75 °C,84%,
Ac-TTWEAWDRAIAEYAARIEALIRALQEQQEKNEAALREL-NH2 (N-terminus and C-terminus assumed) [SEQ ID NO:6],65 °C,97%,≧0.10 μg/ml
Ac-TTWEAWDRAIAEYAARIEALLRAAQEQQEKNEAALREL-NH2 (N-terminus and C-terminus assumed) [SEQ ID NO:8],46 °C,99%,
